Experimental data reported in the supplement of paper PMC12595434, “Development of retinoid nuclear receptor pathway antagonists through targeting aldehyde dehydrogenase 1A3” (iScience, 2025).
Some of the results follow. This is a noisy data set.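 Many melting curves are irregular; where none melted, Tm was taken as 64 °C.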

By UniProt entry, the sequences of proteins in these tests, tags left out. Where a name states a change or a piece, a line headed by the entry shows the natural chain unless it says otherwise.
UniProt Q9NUP9: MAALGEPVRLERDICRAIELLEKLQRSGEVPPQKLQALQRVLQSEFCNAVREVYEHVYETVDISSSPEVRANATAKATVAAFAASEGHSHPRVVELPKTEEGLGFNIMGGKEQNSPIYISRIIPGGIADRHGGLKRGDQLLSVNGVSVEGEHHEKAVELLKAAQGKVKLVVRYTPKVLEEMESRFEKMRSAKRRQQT
UniProt Q9HAV7: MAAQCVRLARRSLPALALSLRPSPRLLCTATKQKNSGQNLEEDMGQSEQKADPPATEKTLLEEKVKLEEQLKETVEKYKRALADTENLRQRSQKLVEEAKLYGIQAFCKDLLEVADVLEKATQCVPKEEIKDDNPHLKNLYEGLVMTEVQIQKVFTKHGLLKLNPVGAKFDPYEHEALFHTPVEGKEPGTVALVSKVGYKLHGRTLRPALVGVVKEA
UniProt Q9NUY8: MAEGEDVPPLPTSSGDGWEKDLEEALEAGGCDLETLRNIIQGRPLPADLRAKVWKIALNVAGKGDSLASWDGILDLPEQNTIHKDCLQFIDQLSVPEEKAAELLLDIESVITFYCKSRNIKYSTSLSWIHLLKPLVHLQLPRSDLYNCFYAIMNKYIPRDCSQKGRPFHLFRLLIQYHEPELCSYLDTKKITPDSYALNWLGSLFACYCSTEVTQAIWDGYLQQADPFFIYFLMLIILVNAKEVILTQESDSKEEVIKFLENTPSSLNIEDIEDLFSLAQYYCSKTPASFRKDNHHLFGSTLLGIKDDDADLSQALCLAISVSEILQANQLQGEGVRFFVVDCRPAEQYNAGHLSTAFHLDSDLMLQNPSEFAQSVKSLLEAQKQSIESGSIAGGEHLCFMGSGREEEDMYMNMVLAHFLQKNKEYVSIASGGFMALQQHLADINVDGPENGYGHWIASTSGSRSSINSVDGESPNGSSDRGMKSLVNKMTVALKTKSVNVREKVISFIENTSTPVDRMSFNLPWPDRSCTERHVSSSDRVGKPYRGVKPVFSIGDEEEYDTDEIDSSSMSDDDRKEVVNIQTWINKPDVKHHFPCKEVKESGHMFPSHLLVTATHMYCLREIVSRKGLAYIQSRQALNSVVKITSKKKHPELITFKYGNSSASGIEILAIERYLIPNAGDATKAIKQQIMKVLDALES
UniProt Q9HD47: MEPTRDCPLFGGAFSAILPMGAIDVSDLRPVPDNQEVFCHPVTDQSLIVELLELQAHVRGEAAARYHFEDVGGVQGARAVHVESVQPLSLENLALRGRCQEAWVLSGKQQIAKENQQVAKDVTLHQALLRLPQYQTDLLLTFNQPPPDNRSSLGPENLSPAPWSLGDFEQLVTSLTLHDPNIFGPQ
UniProt Q9NV31: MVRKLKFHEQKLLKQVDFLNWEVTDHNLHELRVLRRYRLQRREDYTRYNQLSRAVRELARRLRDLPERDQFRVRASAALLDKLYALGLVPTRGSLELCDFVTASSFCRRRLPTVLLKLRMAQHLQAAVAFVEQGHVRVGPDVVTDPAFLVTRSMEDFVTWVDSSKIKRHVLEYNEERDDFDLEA
UniProt Q9NRR5, whole entry: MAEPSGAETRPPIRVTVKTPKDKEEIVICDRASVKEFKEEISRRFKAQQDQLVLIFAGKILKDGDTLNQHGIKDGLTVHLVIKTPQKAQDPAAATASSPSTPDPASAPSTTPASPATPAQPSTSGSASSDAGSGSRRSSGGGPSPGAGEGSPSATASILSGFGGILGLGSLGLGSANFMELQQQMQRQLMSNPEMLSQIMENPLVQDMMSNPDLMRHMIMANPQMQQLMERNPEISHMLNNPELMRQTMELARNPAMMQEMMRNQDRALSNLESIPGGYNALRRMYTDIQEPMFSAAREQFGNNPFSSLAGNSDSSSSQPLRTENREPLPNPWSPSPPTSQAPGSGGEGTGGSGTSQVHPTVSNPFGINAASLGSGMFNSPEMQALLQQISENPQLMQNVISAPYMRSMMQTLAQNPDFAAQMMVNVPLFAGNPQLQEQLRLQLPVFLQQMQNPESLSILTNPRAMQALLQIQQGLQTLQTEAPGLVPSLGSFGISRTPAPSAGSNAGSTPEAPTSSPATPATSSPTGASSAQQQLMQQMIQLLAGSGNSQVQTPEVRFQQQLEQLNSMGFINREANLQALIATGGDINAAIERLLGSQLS
UniProt Q9HCE0: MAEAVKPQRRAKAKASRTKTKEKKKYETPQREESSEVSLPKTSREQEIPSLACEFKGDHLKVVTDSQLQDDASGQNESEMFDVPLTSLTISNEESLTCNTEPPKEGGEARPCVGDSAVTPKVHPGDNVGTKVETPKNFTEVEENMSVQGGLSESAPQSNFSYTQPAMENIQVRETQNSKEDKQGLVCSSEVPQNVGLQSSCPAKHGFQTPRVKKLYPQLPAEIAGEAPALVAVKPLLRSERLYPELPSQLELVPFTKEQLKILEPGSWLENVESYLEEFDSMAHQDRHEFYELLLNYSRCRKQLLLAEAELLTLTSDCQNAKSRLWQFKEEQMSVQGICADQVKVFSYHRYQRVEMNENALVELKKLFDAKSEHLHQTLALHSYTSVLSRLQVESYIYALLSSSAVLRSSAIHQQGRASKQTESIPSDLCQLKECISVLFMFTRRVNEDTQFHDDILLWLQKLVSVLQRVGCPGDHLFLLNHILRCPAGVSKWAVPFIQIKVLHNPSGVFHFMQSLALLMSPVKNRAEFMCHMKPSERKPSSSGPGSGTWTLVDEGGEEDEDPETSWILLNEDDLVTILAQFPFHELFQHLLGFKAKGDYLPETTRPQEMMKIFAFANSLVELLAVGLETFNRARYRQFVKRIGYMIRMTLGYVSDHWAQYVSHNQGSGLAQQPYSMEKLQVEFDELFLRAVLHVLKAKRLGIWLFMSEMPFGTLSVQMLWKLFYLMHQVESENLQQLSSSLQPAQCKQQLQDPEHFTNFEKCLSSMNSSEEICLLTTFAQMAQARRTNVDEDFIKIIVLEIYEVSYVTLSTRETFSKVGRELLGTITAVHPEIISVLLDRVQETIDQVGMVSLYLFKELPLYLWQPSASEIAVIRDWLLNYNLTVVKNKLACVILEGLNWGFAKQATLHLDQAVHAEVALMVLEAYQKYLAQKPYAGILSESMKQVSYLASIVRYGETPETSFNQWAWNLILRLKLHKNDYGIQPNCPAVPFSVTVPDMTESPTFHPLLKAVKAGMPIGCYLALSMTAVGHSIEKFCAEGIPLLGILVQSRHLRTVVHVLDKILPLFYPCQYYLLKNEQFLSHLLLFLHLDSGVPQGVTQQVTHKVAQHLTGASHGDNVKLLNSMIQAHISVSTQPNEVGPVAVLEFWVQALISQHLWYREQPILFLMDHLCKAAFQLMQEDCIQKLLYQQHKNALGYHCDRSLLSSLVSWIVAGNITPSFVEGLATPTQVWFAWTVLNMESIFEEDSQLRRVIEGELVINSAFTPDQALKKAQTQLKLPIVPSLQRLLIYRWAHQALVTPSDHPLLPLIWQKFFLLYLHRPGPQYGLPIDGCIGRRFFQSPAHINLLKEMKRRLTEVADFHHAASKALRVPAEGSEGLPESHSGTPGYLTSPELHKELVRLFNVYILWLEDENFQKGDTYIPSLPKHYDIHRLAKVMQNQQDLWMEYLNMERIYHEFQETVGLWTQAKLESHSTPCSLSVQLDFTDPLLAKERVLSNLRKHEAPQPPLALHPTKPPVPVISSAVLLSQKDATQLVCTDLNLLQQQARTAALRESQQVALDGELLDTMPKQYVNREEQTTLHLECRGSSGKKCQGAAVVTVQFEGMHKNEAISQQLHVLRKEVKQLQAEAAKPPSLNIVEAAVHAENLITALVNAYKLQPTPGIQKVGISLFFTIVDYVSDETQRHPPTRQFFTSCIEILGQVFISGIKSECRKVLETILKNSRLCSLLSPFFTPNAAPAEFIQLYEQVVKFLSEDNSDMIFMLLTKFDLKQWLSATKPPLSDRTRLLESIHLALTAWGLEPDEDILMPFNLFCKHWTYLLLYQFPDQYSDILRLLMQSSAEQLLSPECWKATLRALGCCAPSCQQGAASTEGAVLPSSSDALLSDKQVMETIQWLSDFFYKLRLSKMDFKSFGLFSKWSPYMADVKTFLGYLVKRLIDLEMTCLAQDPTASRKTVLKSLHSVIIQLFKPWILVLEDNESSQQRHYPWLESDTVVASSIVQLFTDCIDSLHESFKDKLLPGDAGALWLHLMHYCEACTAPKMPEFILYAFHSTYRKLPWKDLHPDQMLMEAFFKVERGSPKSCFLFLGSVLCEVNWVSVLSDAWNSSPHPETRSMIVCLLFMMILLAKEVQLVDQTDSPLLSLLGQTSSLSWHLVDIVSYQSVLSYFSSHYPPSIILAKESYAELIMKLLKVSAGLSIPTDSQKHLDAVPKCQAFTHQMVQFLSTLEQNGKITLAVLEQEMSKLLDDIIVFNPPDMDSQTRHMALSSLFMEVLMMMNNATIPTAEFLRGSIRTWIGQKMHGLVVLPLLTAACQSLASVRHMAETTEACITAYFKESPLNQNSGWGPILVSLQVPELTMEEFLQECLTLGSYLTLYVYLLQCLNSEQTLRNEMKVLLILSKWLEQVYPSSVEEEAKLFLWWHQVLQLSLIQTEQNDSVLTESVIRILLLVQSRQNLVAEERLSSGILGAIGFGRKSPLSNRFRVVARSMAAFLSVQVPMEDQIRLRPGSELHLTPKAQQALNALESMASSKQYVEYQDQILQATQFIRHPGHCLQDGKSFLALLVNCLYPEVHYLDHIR
UniProt Q9NP58: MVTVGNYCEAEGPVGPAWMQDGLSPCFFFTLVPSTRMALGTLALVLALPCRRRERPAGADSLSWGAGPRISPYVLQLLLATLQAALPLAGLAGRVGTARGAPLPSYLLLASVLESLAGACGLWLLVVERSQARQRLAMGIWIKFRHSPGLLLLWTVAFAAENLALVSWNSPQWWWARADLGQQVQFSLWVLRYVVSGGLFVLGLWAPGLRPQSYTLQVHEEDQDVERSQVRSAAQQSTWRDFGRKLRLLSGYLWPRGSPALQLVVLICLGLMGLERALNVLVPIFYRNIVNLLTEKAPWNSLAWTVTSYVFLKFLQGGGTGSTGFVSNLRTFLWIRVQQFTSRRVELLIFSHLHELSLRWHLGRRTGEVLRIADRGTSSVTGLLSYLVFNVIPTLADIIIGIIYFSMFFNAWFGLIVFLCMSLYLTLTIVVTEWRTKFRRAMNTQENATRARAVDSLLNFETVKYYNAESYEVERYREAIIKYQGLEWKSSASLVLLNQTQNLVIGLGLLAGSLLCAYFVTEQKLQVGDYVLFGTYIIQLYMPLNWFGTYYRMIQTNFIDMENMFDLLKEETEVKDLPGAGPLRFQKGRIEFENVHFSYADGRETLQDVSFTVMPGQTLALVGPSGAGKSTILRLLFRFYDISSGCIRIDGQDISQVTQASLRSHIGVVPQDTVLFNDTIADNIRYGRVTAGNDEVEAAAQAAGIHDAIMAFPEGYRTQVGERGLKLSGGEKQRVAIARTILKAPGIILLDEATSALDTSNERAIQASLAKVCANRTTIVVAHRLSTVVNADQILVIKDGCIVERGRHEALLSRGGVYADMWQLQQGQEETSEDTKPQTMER
UniProt Q9NQC8: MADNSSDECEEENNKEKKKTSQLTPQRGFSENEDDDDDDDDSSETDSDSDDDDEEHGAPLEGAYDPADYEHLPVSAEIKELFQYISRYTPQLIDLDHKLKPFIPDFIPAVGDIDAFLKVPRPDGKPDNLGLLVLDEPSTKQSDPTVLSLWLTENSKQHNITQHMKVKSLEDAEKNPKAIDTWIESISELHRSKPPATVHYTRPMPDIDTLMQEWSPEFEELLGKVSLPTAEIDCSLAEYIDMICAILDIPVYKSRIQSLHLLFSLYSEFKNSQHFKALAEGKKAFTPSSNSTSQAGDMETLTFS
UniProt Q9NSK0: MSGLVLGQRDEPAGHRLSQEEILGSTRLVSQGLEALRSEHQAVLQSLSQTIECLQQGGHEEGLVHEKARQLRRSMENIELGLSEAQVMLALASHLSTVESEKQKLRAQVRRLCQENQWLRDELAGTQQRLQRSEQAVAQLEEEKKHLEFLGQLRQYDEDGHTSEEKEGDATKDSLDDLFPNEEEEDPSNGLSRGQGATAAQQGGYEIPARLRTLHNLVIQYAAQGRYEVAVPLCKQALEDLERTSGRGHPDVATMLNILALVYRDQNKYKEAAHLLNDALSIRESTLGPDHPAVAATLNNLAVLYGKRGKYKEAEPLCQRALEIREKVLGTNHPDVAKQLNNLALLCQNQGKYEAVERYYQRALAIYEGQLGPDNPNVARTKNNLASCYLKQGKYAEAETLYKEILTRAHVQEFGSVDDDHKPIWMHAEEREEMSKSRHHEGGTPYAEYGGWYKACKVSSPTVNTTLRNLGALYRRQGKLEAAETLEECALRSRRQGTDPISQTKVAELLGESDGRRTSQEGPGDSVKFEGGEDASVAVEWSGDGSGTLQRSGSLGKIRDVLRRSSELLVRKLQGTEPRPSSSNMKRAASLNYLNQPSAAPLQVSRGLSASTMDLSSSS
UniProt Q9NP97, whole entry: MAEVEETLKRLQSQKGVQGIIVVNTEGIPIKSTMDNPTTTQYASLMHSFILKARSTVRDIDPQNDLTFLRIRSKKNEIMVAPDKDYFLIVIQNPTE

Compound: CCc1cnccc1C(=O)Nc1cc2c(cc1F)NC(=O)CC2
Assay: melting temperature shift (DMSO Tm minus MBE1-treated Tm) in cellular thermal proteome profiling; higher = less thermal stabilization by MBE1 (negative = stabilized by MBE1)
Details: A375

LIN7C (UniProt Q9NUP9) gave a melting temperature shift (MBE1 concentration: 100 nM) of -0.586 °C and a melting temperature shift (MBE1 concentration: 1 uM) of 0.00611 °C.

Target RPRD1B (UniProt Q9NQG5) has a melting temperature shift (MBE1 concentration: 100 nM) of 0.336 °C and a melting temperature shift (MBE1 concentration: 1 uM) of -0.531 °C.

For GRPEL1 (UniProt Q9HAV7), the melting temperature shift (MBE1 concentration: 100 nM) was -0.248 °C and the melting temperature shift (MBE1 concentration: 1 uM) was -0.171 °C.

Target VPS37B (UniProt Q9H9H4) has a melting temperature shift (MBE1 concentration: 100 nM) of 0.345 °C and a melting temperature shift (MBE1 concentration: 1 uM) of -0.69 °C.

For UniProt Q9NVA2, the melting temperature shift (MBE1 concentration: 100 nM) was -1.43 °C and the melting temperature shift (MBE1 concentration: 1 uM) was -1.62 °C.

FAM207A (UniProt Q9NSI2) showed a melting temperature shift (MBE1 concentration: 100 nM) of -1.38 °C and a melting temperature shift (MBE1 concentration: 1 uM) of -0.232 °C.

MED17 (UniProt Q9NVC6) gave a melting temperature shift (MBE1 concentration: 100 nM) of 0.421 °C and a melting temperature shift (MBE1 concentration: 1 uM) of 0.0733 °C.

With TMEM30A (UniProt Q9NV96) the melting temperature shift (MBE1 concentration: 100 nM) was -0.409 °C and the melting temperature shift (MBE1 concentration: 1 uM) was 0.464 °C.

Target PLEKHA5 (UniProt Q9HAU0) has a melting temperature shift (MBE1 concentration: 100 nM) of -0.833 °C and a melting temperature shift (MBE1 concentration: 1 uM) of 0.461 °C.

STARD7 (UniProt Q9NQZ5) showed a melting temperature shift (MBE1 concentration: 100 nM) of 0.749 °C and a melting temperature shift (MBE1 concentration: 1 uM) of 0.335 °C.

MRPL40 (UniProt Q9NQ50) was tested, and the melting temperature shift (MBE1 concentration: 100 nM) was 0.44 °C and the melting temperature shift (MBE1 concentration: 1 uM) was 0.244 °C.

For TBC1D23 (UniProt Q9NUY8), the melting temperature shift (MBE1 concentration: 100 nM) was 0.94 °C and the melting temperature shift (MBE1 concentration: 1 uM) was 0.415 °C.

UBE2T (UniProt Q9NPD8) gave a melting temperature shift (MBE1 concentration: 100 nM) of -0.77 °C and a melting temperature shift (MBE1 concentration: 1 uM) of -0.0366 °C.

CLSPN (UniProt Q9HAW4) showed a melting temperature shift (MBE1 concentration: 100 nM) of -1.27 °C and a melting temperature shift (MBE1 concentration: 1 uM) of -0.122 °C.

For HINT3 (UniProt Q9NQE9), the melting temperature shift (MBE1 concentration: 100 nM) was 1.4 °C and the melting temperature shift (MBE1 concentration: 1 uM) was -0.282 °C.

UniProt Q9HCJ0 gave a melting temperature shift (MBE1 concentration: 100 nM) of 0.452 °C and a melting temperature shift (MBE1 concentration: 1 uM) of 0.421 °C.

UniProt Q9HD47 showed a melting temperature shift (MBE1 concentration: 100 nM) of -1.88 °C and a melting temperature shift (MBE1 concentration: 1 uM) of 0.0794 °C.

CTPS2 (UniProt Q9NRF8) was tested, and the melting temperature shift (MBE1 concentration: 100 nM) was -0.951 °C and the melting temperature shift (MBE1 concentration: 1 uM) was -0.0827 °C.

In the case of ATG3 (UniProt Q9NT62), the melting temperature shift (MBE1 concentration: 100 nM) was -1.07 °C and the melting temperature shift (MBE1 concentration: 1 uM) was 0.235 °C.

UniProt Q9HBD1 gave a melting temperature shift (MBE1 concentration: 100 nM) of 1.4 °C and a melting temperature shift (MBE1 concentration: 1 uM) of 0.452 °C.

For UniProt Q9NTJ4, the melting temperature shift (MBE1 concentration: 100 nM) was -1.66 °C and the melting temperature shift (MBE1 concentration: 1 uM) was 0.313 °C.

In the case of MED4 (UniProt Q9NPJ6), the melting temperature shift (MBE1 concentration: 100 nM) was -0.719 °C and the melting temperature shift (MBE1 concentration: 1 uM) was 0.427 °C.

IMP3 (UniProt Q9NV31) gave a melting temperature shift (MBE1 concentration: 100 nM) of -0.725 °C and a melting temperature shift (MBE1 concentration: 1 uM) of -0.892 °C.

C1GALT1 (UniProt Q9NS00) showed a melting temperature shift (MBE1 concentration: 100 nM) of -0.637 °C and a melting temperature shift (MBE1 concentration: 1 uM) of -0.148 °C.

Work on UBQLN4 (UniProt Q9NRR5) yielded a melting temperature shift (MBE1 concentration: 100 nM) of -2.18 °C and a melting temperature shift (MBE1 concentration: 1 uM) of -3.15 °C.

Work on UniProt Q9HCE0 yielded a melting temperature shift (MBE1 concentration: 100 nM) of -1.19 °C and a melting temperature shift (MBE1 concentration: 1 uM) of -0.36 °C.

ABCB6 (UniProt Q9NP58) gave a melting temperature shift (MBE1 concentration: 100 nM) of -0.805 °C and a melting temperature shift (MBE1 concentration: 1 uM) of 0.0335 °C.

Work on NMNAT1 (UniProt Q9HAN9) yielded a melting temperature shift (MBE1 concentration: 100 nM) of -1.67 °C and a melting temperature shift (MBE1 concentration: 1 uM) of 1.98 °C.

Work on XPNPEP1 (UniProt Q9NQW7) yielded a melting temperature shift (MBE1 concentration: 100 nM) of 0.0672 °C and a melting temperature shift (MBE1 concentration: 1 uM) of 0.336 °C.

MRPL17 (UniProt Q9NRX2) was tested, and the melting temperature shift (MBE1 concentration: 100 nM) was 0.977 °C and the melting temperature shift (MBE1 concentration: 1 uM) was 0.537 °C.

Target UniProt Q9H9G7 has a melting temperature shift (MBE1 concentration: 100 nM) of -0.971 °C and a melting temperature shift (MBE1 concentration: 1 uM) of -3.19 °C.

In the case of STAU2 (UniProt Q9NUL3), the melting temperature shift (MBE1 concentration: 100 nM) was -0.157 °C and the melting temperature shift (MBE1 concentration: 1 uM) was 7.6 °C.

For PDLIM7 (UniProt Q9NR12), the melting temperature shift (MBE1 concentration: 100 nM) was 0.294 °C and the melting temperature shift (MBE1 concentration: 1 uM) was -0.33 °C.

Target NGRN (UniProt Q9NPE2) has a melting temperature shift (MBE1 concentration: 100 nM) of -2.36 °C and a melting temperature shift (MBE1 concentration: 1 uM) of -0.00611 °C.

With UniProt Q9NQC8 the melting temperature shift (MBE1 concentration: 100 nM) was -1.08 °C and the melting temperature shift (MBE1 concentration: 1 uM) was 0.346 °C.

Work on UniProt Q9NQT8 yielded a melting temperature shift (MBE1 concentration: 100 nM) of -0.87 °C and a melting temperature shift (MBE1 concentration: 1 uM) of -0.447 °C.

Target CWC22 (UniProt Q9HCG8) has a melting temperature shift (MBE1 concentration: 100 nM) of -0.0192 °C and a melting temperature shift (MBE1 concentration: 1 uM) of -0.282 °C.

Work on KLC4 (UniProt Q9NSK0) yielded a melting temperature shift (MBE1 concentration: 100 nM) of 0.226 °C and a melting temperature shift (MBE1 concentration: 1 uM) of 2.33 °C.

Work on DIABLO (UniProt Q9NR28) yielded a melting temperature shift (MBE1 concentration: 100 nM) of -1.58 °C and a melting temperature shift (MBE1 concentration: 1 uM) of -1.31 °C.

Work on SLC38A10 (UniProt Q9HBR0) yielded a melting temperature shift (MBE1 concentration: 100 nM) of -1.46 °C and a melting temperature shift (MBE1 concentration: 1 uM) of 0.421 °C.

In the case of SFXN1 (UniProt Q9H9B4), the melting temperature shift (MBE1 concentration: 100 nM) was -0.879 °C and the melting temperature shift (MBE1 concentration: 1 uM) was 0.241 °C.

Target ABHD10 (UniProt Q9NUJ1) has a melting temperature shift (MBE1 concentration: 100 nM) of -1.69 °C and a melting temperature shift (MBE1 concentration: 1 uM) of -1.27 °C.

In the case of UniProt Q9NPF2, the melting temperature shift (MBE1 concentration: 100 nM) was -3.89 °C and the melting temperature shift (MBE1 concentration: 1 uM) was -0.362 °C.

In the case of SAR1A (UniProt Q9NR31), the melting temperature shift (MBE1 concentration: 100 nM) was 0.154 °C and the melting temperature shift (MBE1 concentration: 1 uM) was 0.00671 °C.

ATP13A1 (UniProt Q9HD20) was tested, and the melting temperature shift (MBE1 concentration: 100 nM) was -0.0537 °C and the melting temperature shift (MBE1 concentration: 1 uM) was 0.254 °C.

Target LUC7L (UniProt Q9NQ29) has a melting temperature shift (MBE1 concentration: 100 nM) of -0.0855 °C and a melting temperature shift (MBE1 concentration: 1 uM) of 0.684 °C.

DYNLRB1 (UniProt Q9NP97) showed a melting temperature shift (MBE1 concentration: 100 nM) of 0.13 °C and a melting temperature shift (MBE1 concentration: 1 uM) of -2.1 °C.

ACTR8 (UniProt Q9H981) showed a melting temperature shift (MBE1 concentration: 100 nM) of -0.199 °C and a melting temperature shift (MBE1 concentration: 1 uM) of -0.199 °C.

Work on UniProt Q9H9Q4 yielded a melting temperature shift (MBE1 concentration: 100 nM) of -1.48 °C and a melting temperature shift (MBE1 concentration: 1 uM) of -0.443 °C.

VIPAS39 (UniProt Q9H9C1) was tested, and the melting temperature shift (MBE1 concentration: 100 nM) was -0.616 °C and the melting temperature shift (MBE1 concentration: 1 uM) was -1.09 °C.
